In US7014858B2, “Use methods of treating acne and telangiectasia” (CollaGenex Pharmaceuticals, Inc., priority 2001, dated 2006):
For at least one compound, name, drawing or mass did not settle the structure.

Legend:
[1] = Plasma antibiotic threshold levels based on steady-state pharmacokinetics
sebaceous excretion = conditions: 100 mg daily dose; cited from earlier work
[2] = system: skin microflora (including Propionibacterium acnes); assay: Clinical study in moderate acne: microbiological sampling of skin flora and resistant counts; assay type: in vivo; conditions: six-month treatment, 20 mg twice daily, compared with placebo

SMILES	plasma antibiotic threshold level [1]	seborrhoea (sebaceous excretion)	reduction of skin microflora (including Propionibacterium acnes) [2]
CN(C)c1ccc(O)c2c1C[C@H]1C[C@H]3[C@H](N(C)C)C(O)=C(C(N)=O)C(=O)[C@@]3(O)C(O)=C1C2=O [minocycline, 7-dimethylaminotetracycline]	1.0 µg/mL	subclinical increase	
C[C@H]1c2cccc(O)c2C(=O)C2=C(O)[C@]3(O)C(=O)C(C(N)=O)=C(O)[C@@H](N(C)C)[C@@H]3[C@@H](O)[C@@H]21 [doxycycline, 6α-deoxy-5-hydroxytetracycline]	1.0 µg/mL		no reduction
